No constants are given. Whether binding was seen depends on the method and setting. For part of these data: In cells and extracts the contact can be indirect. Some entries that bind do so weakly or less than the wild type. For part of these data: Sequences can lack the tags named with a protein.

The target in test [1] is T1, IKKα (full length human IKKα subunit) (human) (UniProt O15111).
T1 sequence: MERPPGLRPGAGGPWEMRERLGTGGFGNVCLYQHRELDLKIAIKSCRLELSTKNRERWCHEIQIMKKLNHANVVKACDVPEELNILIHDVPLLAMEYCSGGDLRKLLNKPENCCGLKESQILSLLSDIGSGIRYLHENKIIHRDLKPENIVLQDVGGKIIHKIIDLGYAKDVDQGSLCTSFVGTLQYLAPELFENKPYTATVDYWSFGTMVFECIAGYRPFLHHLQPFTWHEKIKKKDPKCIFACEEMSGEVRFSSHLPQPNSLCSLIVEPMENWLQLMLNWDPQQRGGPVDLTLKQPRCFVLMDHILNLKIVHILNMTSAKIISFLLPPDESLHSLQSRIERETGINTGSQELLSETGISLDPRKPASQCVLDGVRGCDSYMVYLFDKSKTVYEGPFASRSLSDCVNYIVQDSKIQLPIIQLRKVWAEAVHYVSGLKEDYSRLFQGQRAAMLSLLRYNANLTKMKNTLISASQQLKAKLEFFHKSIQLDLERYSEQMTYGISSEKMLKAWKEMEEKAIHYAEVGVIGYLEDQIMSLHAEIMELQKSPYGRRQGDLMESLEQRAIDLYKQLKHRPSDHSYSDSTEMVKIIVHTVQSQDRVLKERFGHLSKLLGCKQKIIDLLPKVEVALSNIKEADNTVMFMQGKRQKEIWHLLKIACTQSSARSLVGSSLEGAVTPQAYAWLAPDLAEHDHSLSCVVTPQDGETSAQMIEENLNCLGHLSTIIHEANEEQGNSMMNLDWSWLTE
The test is described as follows: coimmunoprecipitation from HeLa cells transfected with 0.1 to 1.0 µg/10^6 cells of HA-IKKβ vector.

The target of test [2] is T1, IKKα (full length human IKKα subunit) (human). The test is described as follows: coimmunoprecipitation from transfected cells (summing up of the results before it).
A further test deals with T2, Flag(M2)-IKKα (human) (UniProt O15111).
T2 sequence: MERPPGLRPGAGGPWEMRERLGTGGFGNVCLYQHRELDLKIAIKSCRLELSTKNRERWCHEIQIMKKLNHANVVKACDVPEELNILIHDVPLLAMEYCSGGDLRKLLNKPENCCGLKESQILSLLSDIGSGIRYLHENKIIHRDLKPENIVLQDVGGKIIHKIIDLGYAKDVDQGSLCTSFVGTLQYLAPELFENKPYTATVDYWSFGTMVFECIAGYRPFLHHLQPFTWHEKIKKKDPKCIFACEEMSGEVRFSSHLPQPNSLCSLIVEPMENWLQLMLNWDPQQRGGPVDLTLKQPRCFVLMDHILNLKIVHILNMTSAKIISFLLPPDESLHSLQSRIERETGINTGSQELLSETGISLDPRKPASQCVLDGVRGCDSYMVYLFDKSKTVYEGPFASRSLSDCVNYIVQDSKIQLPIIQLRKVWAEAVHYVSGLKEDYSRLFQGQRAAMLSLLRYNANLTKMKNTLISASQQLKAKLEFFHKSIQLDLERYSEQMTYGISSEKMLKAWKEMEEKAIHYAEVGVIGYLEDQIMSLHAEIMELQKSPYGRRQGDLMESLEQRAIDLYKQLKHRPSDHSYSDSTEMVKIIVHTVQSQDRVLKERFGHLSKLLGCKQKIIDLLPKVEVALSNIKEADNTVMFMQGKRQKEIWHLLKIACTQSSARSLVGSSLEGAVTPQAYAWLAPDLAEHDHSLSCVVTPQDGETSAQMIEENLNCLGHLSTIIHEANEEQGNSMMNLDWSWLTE
The test is described as follows: coimmunoprecipitation with anti-HA from transfected 293 cells, immunoblot. On the technique in general: In western blotting, separated proteins are transferred to a membrane and probed.

For test [3], the target named is T1, IKKα (full length human IKKα subunit) (human). The description is as above.
The target of test [4] is GST-(8X-AA) [GST: P08515]. The test is described as follows: affinity chromatography of HeLa IKK material on GST-(8X-AA) resin, silver stained SDS-PAGE.
For test [5], the target named is T1, IKKα (full length human IKKα subunit) (human). The test is described as follows: immunoprecipitation experiments, transfected mammalian cells.

“HA-IKKβ (from UniProt O14920 1-756) (enzyme)”: the binding result (in test [1]; in test [2]; in the test with Flag(M2)-IKKα (human); in test [3]) was “binds” each time.
Take “IKKβ (full length human IKKβ subunit) (from UniProt O14920 1-756) (enzyme)”: the binding entry in test [4] was “binds”.

B1: IKKβ(KA) (enzyme, not shown: small tags and cut ends)
chain: MSWSPSLTTQTCGAWEMKERLGTGGFGNVIRWHNQETGEQIAIAQCRQELSPRNRERWCLEIQIMRRLTHPNVVAARDVPEGMQNLAPNDLPLLAMEYCQGGDLRKYLNQFENCCGLREGAILTLLSDIASALRYLHENRIIHRDLKPENIVLQQGEQRLIHKIIDLGYAKELDQGSLCTSFVGTLQYLAPELLEQQKYTVTVDYWSFGTLAFECITGFRPFLPNWQPVQWHSKVRQKSEVDIVVSEDLNGTVKFSSSLPYPNNLNSVLAERLEKWLQLMLMWHPRQRGTDPTYGPNGCFKALDDILNLKLVHILNMVTGTIHTYPVTEDESLQSLKARIQQDTGIPEEDQELLQEAGLALIPDKPATQCISDGKLNEGHTLDMDLVFLFDNSKITYETQISPRPQPESVSCILQEPKRNLAFFQLRKVWGQVWHSIQTLKEDCNRLQQGQRAAMMNLLRNNSCLSKMKNSMASMSQQLKAKLDFFKTSIQIDLEKYSEQTEFGITSDKLLLAWREMEQAVELCGRENEVKLLVERMMALQTDIVDLQRSPMGRKQGGTLDDLEEQARELYRRLREKPRDQRTEGDSQEMVRLLLQAIQSFEKKVRVIYTQLSKTVVCKQKALELLPKVEEVVSLMNEDEKTVVRLQEKRQKELWNLLKIACSKVRGPVSGSPDSMNASRLSQPGQLMSQPSTASNSLPEPAKKSEELVAEAHNLCTLLENAIQDTVREQDQSFTALDWSWLQTEEEEHSCLEQAS
Turning to B1, in test [5], the binding entry was “binds”.

The values above are taken from patent publication US20040228849A1 (University of California, published 2004).
